# Measurements as given in the supplement of paper PMC8728848.
# The list shows a part of the results.
# B1: FliC (Clostridium difficile) (protein)
# chain: MRVNTNVSALIANNQMGRNVNGQSKSMEKLSSGVRIKRAADDAAGLAISEKMRAQIKGLDQAGRNVQDGISVVQTAEGSLEETGNILQRMRTLSLQSANEINNTEEREKIADELTQLKDEIERISSSTEFNGKKLLDGTSSTIRLQVGASYGTNVSGTSNNNNEIKIQLVNTASIMASAGITTASIGSMKAGGTTGTDAAKTMVSSLDAALKSLNSSRAKLGAQQNRLESTQNNLNNTLENVTAAESRIRDTDVASEMVNLSKMNILVQASQSMLAQANQQPQGVLQLLG
# Key:
# Assay in all cases: glycan array binding signal (z-score within array); higher = stronger binding
# Settings in all cases: glycan notation: IUPAC condensed, linker removed
# [1] = molecular target: Fuc(a1-3)[Gal(b1-4)]GlcNAc(b1-3)Gal(b1-4)[Fuc(a1-3)]GlcNAc(b1-3)Gal(b1-4)[Fuc(a1-3)]GlcNAc
# Outline: (§1)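 Columns mapping to the same glycan were averaged after glycan names were converted to IUPAC-condensed notation. The data come from 3228 arrays in the Consortium for Functional Glycomics database, limited to those with an available protein sequence. Binding is reported as a within-array Z-score averaged across arrays of one protein sequence and across linkers.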
# [2] = molecular target: Fuc(a1-3)[Gal(b1-4)]GlcNAc(b1-3)GalNAc
# Outline: as §1
# [3] = molecular target: Fuc(a1-3)[Gal(b1-4)]GlcNAc(b1-6)GalNAc
# Outline: as §1
# [4] = molecular target: Fuc(a1-3)[Gal(b1-4)]GlcNAc(b1-6)[Gal(b1-3)GlcNAc(b1-3)]Gal(b1-4)Glc
# Outline: as §1
# [5] = molecular target: Fuc(a1-3)[Gal(b1-4)]GlcNAc6S
# Outline: as §1
# [6] = molecular target: Fuc(a1-3)[Gal3S(b1-4)]Glc
# Outline: as §1
# [7] = molecular target: Fuc(a1-3)[Gal3S(b1-4)]GlcNAc
# Outline: as §1
# [8] = molecular target: Fuc(a1-3)[Gal3S(b1-4)]GlcNAc6S
# Outline: as §1
# [9] = molecular target: Fuc(a1-3)[GalNAc(b1-4)]GlcNAc
# Outline: as §1
# [10] = molecular target: Fuc(a1-3)[GalNAc(b1-4)]GlcNAc6S
# Outline: as §1
# [11] = molecular target: Fuc(a1-4)GlcNAc
# Outline: as §1
# [12] = molecular target: Fuc(b1-3)GlcNAc
# Outline: as §1
# [13] = molecular target: Gal(a1-2)Gal
# Outline: as §1
# [14] = molecular target: Gal(a1-3)Gal
# Outline: as §1
# [15] = molecular target: Gal(a1-3)Gal(b1-3)GlcNAc
# Outline: as §1
# [16] = molecular target: Gal(a1-3)Gal(b1-3)GlcNAc(b1-2)Man
# Outline: as §1
# [17] = molecular target: Gal(a1-3)Gal(b1-3)GlcNAc(b1-2)Man(a1-3)[Gal(a1-3)Gal(b1-3)GlcNAc(b1-2)Man(a1-6)]Man(b1-4)GlcNAc(b1-4)GlcNAc
# Outline: as §1
# [18] = molecular target: Gal(a1-3)Gal(b1-3)GlcNAc(b1-3)GalNAc
# Outline: as §1
# [19] = molecular target: Gal(a1-3)Gal(b1-3)GlcNAc(b1-6)GalNAc
# Outline: as §1
# [20] = molecular target: Gal(a1-3)Gal(b1-3)[Fuc(a1-4)]GlcNAc(b1-2)Man(a1-3)[Gal(a1-3)Gal(b1-3)[Fuc(a1-4)]GlcNAc(b1-2)Man(a1-6)]Man(b1-4)GlcNAc(b1-4)GlcNAc
# Outline: as §1
# [21] = molecular target: Gal(a1-3)Gal(b1-4)Glc
# Outline: as §1
# [22] = molecular target: Gal(a1-3)Gal(b1-4)GlcNAc
# Outline: as §1
# [23] = molecular target: Gal(a1-3)Gal(b1-4)GlcNAc(b1-2)Man
# Outline: as §1
# [24] = molecular target: Gal(a1-3)Gal(b1-4)GlcNAc(b1-2)Man(a1-3)[Gal(a1-3)Gal(b1-4)GlcNAc(b1-2)Man(a1-6)]Man(b1-4)GlcNAc(b1-4)GlcNAc
# Outline: as §1
# [25] = molecular target: Gal(a1-3)Gal(b1-4)GlcNAc(b1-3)GalNAc
# Outline: as §1
# [26] = molecular target: Gal(a1-3)Gal(b1-4)GlcNAc(b1-6)GalNAc
# Outline: as §1
# [27] = molecular target: Gal(a1-3)Gal(b1-4)[Fuc(a1-3)]GlcNAc
# Outline: as §1
# [28] = molecular target: Gal(a1-3)Gal(b1-4)[Fuc(a1-3)]GlcNAc(b1-2)Man(a1-3)[Gal(a1-3)Gal(b1-4)[Fuc(a1-3)]GlcNAc(b1-2)Man(a1-6)]Man(b1-4)GlcNAc(b1-4)GlcNAc
# Outline: as §1
# [29] = molecular target: Gal(a1-3)GalNAc
# Outline: as §1
# [30] = molecular target: Gal(a1-3)[Gal(a1-4)]Gal(b1-4)GlcNAc
# Outline: as §1
# [31] = molecular target: Gal(a1-4)Gal(b1-3)GlcNAc(b1-2)Man(a1-3)[Gal(a1-4)Gal(b1-3)GlcNAc(b1-2)Man(a1-6)]Man(b1-4)GlcNAc(b1-4)GlcNAc
# Outline: as §1
# [32] = molecular target: Gal(a1-4)Gal(b1-4)Glc
# Outline: as §1
# [33] = molecular target: Gal(a1-4)Gal(b1-4)GlcNAc
# Outline: as §1
# [34] = molecular target: Gal(a1-4)Gal(b1-4)GlcNAc(b1-2)Man(a1-3)[Gal(a1-4)Gal(b1-4)GlcNAc(b1-2)Man(a1-6)]Man(b1-4)GlcNAc(b1-4)GlcNAc
# Outline: as §1
# [35] = molecular target: Gal(a1-4)Gal(b1-4)GlcNAc(b1-3)Gal(b1-4)Glc
# Outline: as §1
# [36] = molecular target: Gal(a1-4)GlcNAc
# Outline: as §1
# [37] = molecular target: Gal(a1-6)Glc
# Outline: as §1
# [38] = molecular target: Gal(b1-2)Gal
# Outline: as §1
binder,measurement,setting,value
B1,glycan array binding signal (z-score),[1],-0.069
same,glycan array binding signal (z-score),[2],-0.15
same,glycan array binding signal (z-score),[3],0.423
same,glycan array binding signal (z-score),[4],-0.284
same,glycan array binding signal (z-score),[5],-0.087
same,glycan array binding signal (z-score),[6],1.81
same,glycan array binding signal (z-score),[7],0.132
same,glycan array binding signal (z-score),[8],0.354
same,glycan array binding signal (z-score),[9],-0.706
same,glycan array binding signal (z-score),[10],-0.276
same,glycan array binding signal (z-score),[11],0.102
same,glycan array binding signal (z-score),[12],-0.932
same,glycan array binding signal (z-score),[13],-0.637
same,glycan array binding signal (z-score),[14],0.039
same,glycan array binding signal (z-score),[15],4.21
same,glycan array binding signal (z-score),[16],-0.592
same,glycan array binding signal (z-score),[17],-0.204
same,glycan array binding signal (z-score),[18],-0.411
same,glycan array binding signal (z-score),[19],-0.065
same,glycan array binding signal (z-score),[20],0.34
same,glycan array binding signal (z-score),[21],0.767
same,glycan array binding signal (z-score),[22],-0.787
same,glycan array binding signal (z-score),[23],-0.716
same,glycan array binding signal (z-score),[24],8.29
same,glycan array binding signal (z-score),[25],-0.548
same,glycan array binding signal (z-score),[26],-0.906
same,glycan array binding signal (z-score),[27],0.999
same,glycan array binding signal (z-score),[28],1.28
same,glycan array binding signal (z-score),[29],-0.438
same,glycan array binding signal (z-score),[30],-0.786
same,glycan array binding signal (z-score),[31],4.1
same,glycan array binding signal (z-score),[32],-0.374
same,glycan array binding signal (z-score),[33],-0.668
same,glycan array binding signal (z-score),[34],1.34
same,glycan array binding signal (z-score),[35],0.243
same,glycan array binding signal (z-score),[36],0.077
same,glycan array binding signal (z-score),[37],0.461
same,glycan array binding signal (z-score),[38],0.699

# Looked up one by one from above:
binder,measurement,setting,value
B1,glycan array binding signal (z-score),[4],-0.284
same,glycan array binding signal (z-score),[24],8.29
